Reference: PubChem BioAssay AID1671190 (National Center for Advancing Translational Sciences (NCATS), 2021)
“And” between values parts separate entries of the source, which are not always exact repeats. Equal values may be shown once. Screen size: about 580,000 compounds; about 6,100 (1.1%) were called active. Inconclusive means that the source gave no clear call. Such entries were picked first, then a sample of the others. Calls follow the shape of the dose curve; as a rule, active = well fitted inhibition curve with a large enough effect; inconclusive = small, poorly fitted or top-dose-only effect, or another doubt; inactive = no such curve, though single readings can be large or run the other way. Where the call is inconclusive, the potency comes from a doubtful curve fit.

Chains of the proteins cited; added tags and fusions are not shown. Lines headed by an entry give the natural chain unless they say otherwise; changes in a name come on top.
UniProt P18054: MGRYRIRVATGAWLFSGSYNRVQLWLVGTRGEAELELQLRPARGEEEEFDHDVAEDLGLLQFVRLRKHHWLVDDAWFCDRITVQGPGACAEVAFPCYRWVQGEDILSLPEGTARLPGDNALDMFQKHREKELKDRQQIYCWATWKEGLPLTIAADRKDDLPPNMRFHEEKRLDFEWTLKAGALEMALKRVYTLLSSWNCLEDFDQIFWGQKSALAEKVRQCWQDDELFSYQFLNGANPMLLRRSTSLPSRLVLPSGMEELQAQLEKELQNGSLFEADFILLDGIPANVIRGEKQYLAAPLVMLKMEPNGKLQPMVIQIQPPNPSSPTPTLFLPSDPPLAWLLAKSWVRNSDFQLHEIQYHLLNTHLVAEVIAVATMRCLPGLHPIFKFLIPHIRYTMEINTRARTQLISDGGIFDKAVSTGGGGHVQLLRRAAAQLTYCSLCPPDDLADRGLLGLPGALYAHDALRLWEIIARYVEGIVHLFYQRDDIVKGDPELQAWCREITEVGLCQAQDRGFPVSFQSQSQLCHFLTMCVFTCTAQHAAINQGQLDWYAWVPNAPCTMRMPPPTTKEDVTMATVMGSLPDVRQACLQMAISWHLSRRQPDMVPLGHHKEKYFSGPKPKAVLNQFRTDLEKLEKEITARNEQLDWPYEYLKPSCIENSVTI

target: Polyunsaturated fatty acid lipoxygenase ALOX12 (Homo sapiens) (UniProt P18054); test: Primary qHTS assay for inhibitors of human arachidonate 12S-lipoxygenase (ALOX12): Round 2; conditions: purified 12hLO, xylenol orange hydroperoxide absorbance; activity change, negative = inhibition: at 108 µM (top of the series) unless noted
Summary of the method: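 Purified human 12hLO at 150 nM in 25 mM Hepes, 0.01% Triton X-100, pH 7.0, preincubated 15 min at room temperature with compound. Reaction started with 40 uM arachidonic acid, 30 min at room temperature. Hydroperoxide measured by Fe-xylenol orange, 573/405 nm absorbance ratio.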
% is scaled to controls: 0 for no effect and ±100 for the full control effect; potency is read from the fitted curve at half-maximal effect.

Structure (SMILES) | Potency | activity change, negative = inhibition
COc1ccccc1-c1nnc([C@H]2CCN(C(=O)c3ccccc3)C2)o1 | inactive | 
CCC(C)Nc1nc(-c2ccc3c(c2)NC(=O)CO3)cs1 (stereo not drawn) | inconclusive: 35.5 µM [inhibitor, partial curve, poor fit] and inconclusive: 14.1 µM [inhibitor, partial curve, poor fit] | 
O=C(Nc1ccccc1)N1CCN(Cc2ccc(Cl)cc2)CC1 | inconclusive: 50.1 µM [inhibitor, single point] | 
COc1ccc2c(c1)c(C(C(=O)O)N1CCN(C(C)=O)CC1)cn2CC(=O)O (stereo not drawn) | inconclusive: 31.6 µM [inhibitor, partial curve, poor fit] | 
C/C(N)=C(/C#N)C(=O)CSc1nc2ccc(C)cc2[nH]1 | inconclusive: 31.6 µM [inhibitor, partial curve] | 
CCc1ccc(OCC(=O)NCc2ccco2)c(Br)c1 | inconclusive: 100 µM [inhibitor, single point] | 
O=C(c1ccoc1)N1CCC2(CC1)NC(=O)N(c1ccccc1Cl)N2 | active: 1.26 µM | 
Cn1cnc(S(=O)(=O)Nc2ccccc2N2CCOCC2)c1 | inconclusive: 100 µM [inhibitor, single point] | 
Cn1c(=O)[nH]c(=O)c2c1nc(SCC(N)=O)n2CCCc1ccccc1 | inactive | 
c1ccc(CCN(Cc2ccccc2)C2CCN(C3CCCC3)CC2)cc1 | inconclusive: 4.47 µM [inhibitor, full curve, poor fit] | 
Cc1[nH]c2ccccc2c1C(C(=O)O)N1CCN(Cc2ccccn2)CC1 (stereo not drawn) | inconclusive: 14.1 µM [inhibitor, single point] | 
O=[N+]([O-])c1ccc(N2CCN(Cc3ccc(Br)o3)CC2)cc1 | inconclusive: 4.47 µM [inhibitor, full curve] | 
O=C(NCC#Cc1cccc(C(F)(F)F)c1)c1ccc(=O)[nH]c1 | inconclusive: 100 µM [inhibitor, single point] | 
Cc1cccc(N2NC3(CCCCC3)NC2=S)c1C | inconclusive: 4.47 µM [inhibitor, full curve, poor fit] | 
C[C@H]1COC(=O)[C@@H](Cc2ccc(F)cc2)C/C=C\C[C@H](CC(=O)NCCO)C(=O)N1 | inconclusive: 100 µM [inhibitor, single point] | 
COCc1ccccc1CNC(=O)c1cccs1 | inactive | 
CCn1nc(C)cc1C(=O)NCC1CCC2(CCN(Cc3ccccc3F)CC2)O1 (stereo not drawn) | inconclusive: 141 µM [inhibitor, single point] | 
CCOc1cc2[nH]c(=S)n(Cc3ccc(C)o3)c(=O)c2cc1OCC | inactive | 
CCN(CC)c1ccc(/C=N/NC(=O)CNC(=O)c2ccc3c(c2)OCCO3)cc1 | inactive | 
Cc1ccc2ncccc2c1NS(=O)(=O)c1ccccc1 | inconclusive: 25.1 µM [inhibitor, partial curve, poor fit] | 
Cc1cc(NS(C)(=O)=O)cc2sc(NC(=O)c3ccccc3)nc12 |  | inconclusive: -44.1% [inhibitor]
CC(C)CC(=O)NNC(=S)Nc1ccc(S(N)(=O)=O)cc1 | inconclusive: 50.1 µM [inhibitor, partial curve, poor fit] | 

Quoted at random: two compounds from above
Structure (SMILES) | Potency | activity change, negative = inhibition
Cc1cc(NS(C)(=O)=O)cc2sc(NC(=O)c3ccccc3)nc12 |  | inconclusive: -44.1% [inhibitor]
O=C(Nc1ccccc1)N1CCN(Cc2ccc(Cl)cc2)CC1 | inconclusive: 50.1 µM [inhibitor, single point] | 

(continued)

Structure (SMILES) | Potency | activity change, negative = inhibition
O=C(NC1CCCCC1)C1CC1c1ccccc1 (stereo not drawn) | inactive | 
CC(Nc1nc(Nc2ccc(F)cc2)nc(SCC(N)=O)n1)c1ccccc1 (stereo not drawn) | inconclusive: 112 µM [inhibitor, partial curve, poor fit] | 
COc1ccc2c(CNc3ccccc3C)cc(=O)oc2c1 | inactive | 
O=C(c1cc(C(F)(F)F)cc(C(F)(F)F)c1)N1CCC2(CC1)CCN(c1ncccn1)CC2 | inconclusive: 25.1 µM [inhibitor, single point] | 
Cc1ccc(C(=O)Nc2cccc(C(F)(F)F)c2)cc1Nc1nc(-c2cccnc2)nc2c1cnn2C | inconclusive: 24.3 µM [inhibitor, single point] | 
O=C(CSc1ncccc1C(=O)O)c1ccc2ccccc2c1 | inconclusive: 0.251 µM [inhibitor, full curve, poor fit] | 
Cc1nc(NC(=O)/C=C/c2ccccc2)sc1C(=O)Nc1ccccc1Cl | inactive | 
NC(Cc1ccc(F)cc1)c1csc(Nc2ccc(C(F)(F)F)cn2)n1 (stereo not drawn) | inconclusive: 79.4 µM [inhibitor, partial curve, poor fit] | 
Cc1ccc(C)c(C(C)NC(=O)c2cc3ccccc3oc2=O)c1 (stereo not drawn) | inconclusive: 50.1 µM [inhibitor, partial curve, poor fit] | 
Cc1nc2ccccc2nc1SCC(=O)Nc1ccccc1OC(F)F | inconclusive: 141 µM [inhibitor, single point] | 
Clc1ccc(Cl)c(OCCCCN2CCNCC2)c1 | inconclusive: 25.1 µM [inhibitor, single point] | 
O=CN(Cc1nc2ccccc2[nH]1)c1ccc(C(=O)O)cc1 | inconclusive: 50.1 µM [inhibitor, partial curve, poor fit] | 
O=C(C[n+]1ccc(C(=O)N/N=C/c2ccc(Cl)cc2Cl)cc1)c1ccccc1 | inconclusive: 44.7 µM [inhibitor, partial curve, poor fit] | 
COc1cccc(-c2cnc(C(O)c3ccc(Cl)cc3)[nH]2)c1 (stereo not drawn) | inactive | 
CCOC(=O)C(C(=O)O)C1CCCCC1 (stereo not drawn) | inactive | 
CCOc1ccc(NC(=O)CN2CCN(C3CCCCC3)C(=O)C2=O)cc1 | inactive | 
C[C@@H]1COC(=O)[C@@H](NC(=O)OCC2c3ccccc3-c3ccccc32)C/C=C\C[C@@H](CC(=O)N(CCO)Cc2ccccc2)C(=O)N1 | inconclusive: 44.7 µM [inhibitor, partial curve, poor fit] | 
Cc1nnc(SCC(=O)Nc2ccccc2NC(=O)CSc2nnc(C)s2)s1 | inactive | 
Oc1ccccc1/C=N/NC(=S)NC1CC2CCC1C2 (stereo not drawn) | inconclusive: 112 µM [inhibitor, single point] | 
Cc1cc2nc(C)n(CCCNC(=O)Nc3ccc(C#N)cc3)c2cc1C | inconclusive: 141 µM [inhibitor, single point] | 
Cc1ccc2c(COC(=O)CNS(=O)(=O)c3ccccc3)cc(=O)oc2c1 | inconclusive: 70.8 µM [inhibitor, partial curve, poor fit] | 
